Tested on: PAF-induced platelet aggregation
Test: Platelet aggregation assay (PAF-induced aggregation of human platelet-rich plasma)
Format: cell-based
Conditions: 2 min, human PRP, PAF 1-5×10^-8 M, 37° C., 2 min. incubation, read-out: PAF Antagonism (in vitro) IC50
Description: Platelet-activating factor (PAF) causes aggregation of platelets by a receptor-mediated mechanism. Therefore, PAF-induced platelet aggregation provides a simple and convenient assay to screen compounds for PAF antagonism.
Blood was centrifuged at 110×g for 15 min. and the supernatant platelet-rich plasma (PRP) carefully transferred into a polypropylene tube. Platelet-poor-plasma (PPP) was prepared by centrifuging PRP at 12,000×g for 2 min. (Beckman Microfuge B). PRP was used within 3 hr. of drawing the blood.
PAF was dissolved in chloroform:methanol (1:1, v/v) at a concentration of 2 mg/ml and stored at -70° C. An aliquot of this solution was transferred to a polypropylene tube and dried under a flow of nitrogen gas. […] This stock solution was further diluted to appropriate concentrations in Hepes-saline-BSA buffer. Collagen (Sigma) and adenosine diphosphate (ADP) (Sigma) were purchased as solutions. Test compounds were initially dissolved in dimethyl sulfoxide (DMSO) at a concentration of 50 mM and then further diluted in Hepes-saline-BSA buffer to achieve appropriate concentrations.
When an aggregating agent such as PAF is added to PRP, platelets aggregate. An aggregometer quantifies this aggregation by measuring and comparing light (infra-red) transmission through PPP and PRP. […]

## CCOC(=O)N1CCC(=C2c3ccc(Cl)cc3CCc3cccnc32)CC1 [Compound 1]
  IC50: 175 µM

Reference: patent publication US5416087A, “Bis-benzo, cyclohepta piperidylidene, piperidine and piperazine compounds, compositions and methods of use” (priority 1993, dated 1995)
